# According to the supplement of paper PMC8728848:
# Some of the results follow.
# B1: SUN4P (Saccharomyces cerevisiae), P53616 (protein)
# chain: MGSSHHHHHHSSGLVPRGSHNGSIYGDLADFSGPYEKFEDGTIPCGQFPSGQGVIPISWLDEGGWSGVENTDTSTGGSCKEGSYCSYACQPGMSKTQWPSDQPSDGRSIGGLLCKDGYLYRSNTDTDYLCEWGVDAAYVVSELSNDVAICLTDYPGTENMVIPTYVQAGDSLPLTVVDQDTYYTWQGLKTSAQYYVNNAGISVEDACVWGSSSSGVGNWAPLNFGAGSSDGVAYLSLIPNPNNGNALNFNVKIVAADDSSTVNGECIYENGSFSGGSDGCTVSVTAGKAKFVLYN
# Tests used:
# Experiment in all cases: glycan array binding signal (z-score within array); higher = stronger binding
# Details in all cases: glycan notation: IUPAC condensed, linker removed; mutation: R276L
# [1] = target: Neu5Ac(a2-3)Gal(b1-4)GlcNAc(b1-3)[Neu5Ac(a2-3)Gal(b1-4)GlcNAc(b1-6)]GalNAc
# Outline: (§1)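 Columns mapping to the same glycan were averaged after glycan names were converted to IUPAC-condensed notation. The data come from 3228 arrays in the Consortium for Functional Glycomics database, limited to those with an available protein sequence. Binding is reported as a within-array Z-score averaged across arrays of one protein sequence and across linkers.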
# [2] = target: Neu5Ac(a2-3)Gal(b1-4)GlcNAc(b1-6)GalNAc
# Outline: as §1
# [3] = target: Neu5Ac(a2-3)Gal(b1-4)GlcNAc(b1-6)[Gal(b1-3)]GalNAc
# Outline: as §1
# [4] = target: Neu5Ac(a2-3)Gal(b1-4)GlcNAc(b1-6)[Neu5Ac(a2-3)Gal(b1-3)]GalNAc
# Outline: as §1
# [5] = target: Neu5Ac(a2-3)Gal(b1-4)GlcNAc6S
# Outline: as §1
# [6] = target: Neu5Ac(a2-3)Gal(b1-4)[Fuc(a1-3)]GlcNAc
# Outline: as §1
# [7] = target: Neu5Ac(a2-3)Gal(b1-4)[Fuc(a1-3)]GlcNAc(b1-2)Man
# Outline: as §1
# [8] = target: Neu5Ac(a2-3)Gal(b1-4)[Fuc(a1-3)]GlcNAc(b1-3)Gal
# Outline: as §1
# [9] = target: Neu5Ac(a2-3)Gal(b1-4)[Fuc(a1-3)]GlcNAc(b1-3)Gal(b1-4)GlcNAc
# Outline: as §1
# [10] = target: Neu5Ac(a2-3)Gal(b1-4)[Fuc(a1-3)]GlcNAc(b1-3)Gal(b1-4)[Fuc(a1-3)]GlcNAc(b1-3)Gal(b1-4)[Fuc(a1-3)]GlcNAc
# Outline: as §1
# [11] = target: Neu5Ac(a2-3)Gal(b1-4)[Fuc(a1-3)]GlcNAc(b1-3)GalNAc
# Outline: as §1
# [12] = target: Neu5Ac(a2-3)Gal(b1-4)[Fuc(a1-3)]GlcNAc(b1-6)[Gal(b1-3)]GalNAc
# Outline: as §1
# [13] = target: Neu5Ac(a2-3)Gal(b1-4)[Fuc(a1-3)]GlcNAc(b1-6)[Neu5Ac(a2-3)Gal(b1-3)]GalNAc
# Outline: as §1
# [14] = target: Neu5Ac(a2-3)Gal(b1-4)[Fuc(a1-3)]GlcNAc6S
# Outline: as §1
# [15] = target: Neu5Ac(a2-3)Gal6S(b1-4)GlcNAc
# Outline: as §1
# [16] = target: Neu5Ac(a2-3)Gal6S(b1-4)[Fuc(a1-3)]GlcNAc
# Outline: as §1
# Neu5Ac(a2-3)GalNAc = target: Neu5Ac(a2-3)GalNAc
# Outline: as §1
# [17] = target: Neu5Ac(a2-3)GalNAc(b1-4)GlcNAc
# Outline: as §1
# [18] = target: Neu5Ac(a2-3)[GalNAc(b1-4)]Gal(b1-4)Glc
# Outline: as §1
# [19] = target: Neu5Ac(a2-3)[GalNAc(b1-4)]Gal(b1-4)GlcNAc
# Outline: as §1
# [20] = target: Neu5Ac(a2-3)[GalNAc(b1-4)]Gal(b1-4)GlcNAc(b1-3)GalNAc
# Outline: as §1
# [21] = target: Neu5Ac(a2-3)[Neu5Ac(a2-6)]GalNAc
# Outline: as §1
# Neu5Ac(a2-6)Gal = target: Neu5Ac(a2-6)Gal
# Outline: as §1
# [22] = target: Neu5Ac(a2-6)Gal(b1-3)GlcNAc(b1-3)[Gal(b1-4)GlcNAc(b1-6)]Gal(b1-4)Glc
# Outline: as §1
# Neu5Ac(a2-6)Gal(b1-4)Glc = target: Neu5Ac(a2-6)Gal(b1-4)Glc
# Outline: as §1
# [23] = target: Neu5Ac(a2-6)Gal(b1-4)GlcNAc
# Outline: as §1
# [24] = target: Neu5Ac(a2-6)Gal(b1-4)GlcNAc(b1-2)Man
# Outline: as §1
# [25] = target: Neu5Ac(a2-6)Gal(b1-4)GlcNAc(b1-2)Man(a1-3)Man(b1-4)GlcNAc(b1-4)GlcNAc
# Outline: as §1
# [26] = target: Neu5Ac(a2-6)Gal(b1-4)GlcNAc(b1-2)Man(a1-3)[Gal(b1-4)GlcNAc(b1-2)Man(a1-6)]Man(b1-4)GlcNAc(b1-4)GlcNAc
# Outline: as §1
# [27] = target: Neu5Ac(a2-6)Gal(b1-4)GlcNAc(b1-2)Man(a1-3)[GlcNAc(b1-2)Man(a1-6)]Man(b1-4)GlcNAc(b1-4)GlcNAc
# Outline: as §1
# [28] = target: Neu5Ac(a2-6)Gal(b1-4)GlcNAc(b1-2)Man(a1-3)[GlcNAc(b1-4)][Neu5Ac(a2-6)Gal(b1-4)GlcNAc(b1-2)Man(a1-6)]Man(b1-4)GlcNAc(b1-4)GlcNAc
# Outline: as §1
# [29] = target: Neu5Ac(a2-6)Gal(b1-4)GlcNAc(b1-2)Man(a1-3)[Man(a1-6)]Man(b1-4)GlcNAc(b1-4)GlcNAc
# Outline: as §1
# [30] = target: Neu5Ac(a2-6)Gal(b1-4)GlcNAc(b1-2)Man(a1-3)[Neu5Ac(a2-3)Gal(b1-4)GlcNAc(b1-2)Man(a1-6)]Man(b1-4)GlcNAc(b1-4)GlcNAc
# Outline: as §1
# [31] = target: Neu5Ac(a2-6)Gal(b1-4)GlcNAc(b1-2)Man(a1-3)[Neu5Ac(a2-6)Gal(b1-4)GlcNAc(b1-2)Man(a1-6)]Man(b1-4)GlcNAc(b1-4)GlcNAc
# Outline: as §1
# [32] = target: Neu5Ac(a2-6)Gal(b1-4)GlcNAc(b1-2)Man(a1-3)[Neu5Ac(a2-6)Gal(b1-4)GlcNAc(b1-2)Man(a1-6)]Man(b1-4)GlcNAc(b1-4)[Fuc(a1-6)]GlcNAc
# Outline: as §1
# [33] = target: Neu5Ac(a2-6)Gal(b1-4)GlcNAc(b1-2)Man(a1-6)Man(b1-4)GlcNAc(b1-4)GlcNAc
# Outline: as §1
# [34] = target: Neu5Ac(a2-6)Gal(b1-4)GlcNAc(b1-2)Man(a1-6)[Gal(b1-4)GlcNAc(b1-2)Man(a1-3)]Man(b1-4)GlcNAc(b1-4)GlcNAc
# Outline: as §1
# [35] = target: Neu5Ac(a2-6)Gal(b1-4)GlcNAc(b1-2)Man(a1-6)[GlcNAc(b1-2)Man(a1-3)]Man(b1-4)GlcNAc(b1-4)GlcNAc
# Outline: as §1
# [36] = target: Neu5Ac(a2-6)Gal(b1-4)GlcNAc(b1-2)Man(a1-6)[Man(a1-3)]Man(b1-4)GlcNAc(b1-4)GlcNAc
# Outline: as §1
# [37] = target: Neu5Ac(a2-6)Gal(b1-4)GlcNAc(b1-2)[Neu5Ac(a2-6)Gal(b1-4)GlcNAc(b1-4)]Man(a1-3)[GlcNAc(b1-4)][Neu5Ac(a2-6)Gal(b1-4)GlcNAc(b1-2)[Neu5Ac(a2-6)Gal(b1-4)GlcNAc(b1-6)]Man(a1-6)]Man(b1-4)GlcNAc(b1-4)GlcNAc
# Outline: as §1
# [38] = target: Neu5Ac(a2-6)Gal(b1-4)GlcNAc(b1-2)[Neu5Ac(a2-6)Gal(b1-4)GlcNAc(b1-4)]Man(a1-3)[GlcNAc(b1-4)][Neu5Ac(a2-6)Gal(b1-4)GlcNAc(b1-4)Man(a1-6)]Man(b1-4)GlcNAc(b1-4)GlcNAc
# Outline: as §1
# [39] = target: Neu5Ac(a2-6)Gal(b1-4)GlcNAc(b1-2)[Neu5Ac(a2-6)Gal(b1-4)GlcNAc(b1-6)]Man(a1-6)[Neu5Ac(a2-6)Gal(b1-4)GlcNAc(b1-2)Man(a1-3)][GlcNAc(b1-4)]Man(b1-4)GlcNAc(b1-4)GlcNAc
# Outline: as §1
# [40] = target: Neu5Ac(a2-6)Gal(b1-4)GlcNAc(b1-3)Gal(b1-3)GlcNAc
# Outline: as §1
# [41] = target: Neu5Ac(a2-6)Gal(b1-4)GlcNAc(b1-3)Gal(b1-4)GlcNAc
# Outline: as §1
# [42] = target: Neu5Ac(a2-6)Gal(b1-4)GlcNAc(b1-3)Gal(b1-4)GlcNAc(b1-2)Man(a1-3)[Neu5Ac(a2-6)Gal(b1-4)GlcNAc(b1-3)Gal(b1-4)GlcNAc(b1-2)Man(a1-6)]GalNAc
# Outline: as §1
binder,measurement,setting,value
B1,glycan array binding signal (z-score),[1],-0.132
same,glycan array binding signal (z-score),[2],1.78
same,glycan array binding signal (z-score),[3],1.59
same,glycan array binding signal (z-score),[4],1.04
same,glycan array binding signal (z-score),[5],-0.077
same,glycan array binding signal (z-score),[6],0.024
same,glycan array binding signal (z-score),[7],-0.186
same,glycan array binding signal (z-score),[8],-0.338
same,glycan array binding signal (z-score),[9],0.472
same,glycan array binding signal (z-score),[10],0.273
same,glycan array binding signal (z-score),[11],0.149
same,glycan array binding signal (z-score),[12],0.339
same,glycan array binding signal (z-score),[13],1.2
same,glycan array binding signal (z-score),[14],0.84
same,glycan array binding signal (z-score),[15],0.492
same,glycan array binding signal (z-score),[16],-1.12
same,glycan array binding signal (z-score),Neu5Ac(a2-3)GalNAc,-0.281
same,glycan array binding signal (z-score),[17],-1.69
same,glycan array binding signal (z-score),[18],1.36
same,glycan array binding signal (z-score),[19],-0.232
same,glycan array binding signal (z-score),[20],-0.876
same,glycan array binding signal (z-score),[21],-0.295
same,glycan array binding signal (z-score),Neu5Ac(a2-6)Gal,0.469
same,glycan array binding signal (z-score),[22],-0.281
same,glycan array binding signal (z-score),Neu5Ac(a2-6)Gal(b1-4)Glc,-0.078
same,glycan array binding signal (z-score),[23],0.187
same,glycan array binding signal (z-score),[24],0.374
same,glycan array binding signal (z-score),[25],-0.301
same,glycan array binding signal (z-score),[26],-0.654
same,glycan array binding signal (z-score),[27],0.46
same,glycan array binding signal (z-score),[28],-0.15
same,glycan array binding signal (z-score),[29],-0.735
same,glycan array binding signal (z-score),[30],0.435
same,glycan array binding signal (z-score),[31],-0.169
same,glycan array binding signal (z-score),[32],0.79
same,glycan array binding signal (z-score),[33],-0.387
same,glycan array binding signal (z-score),[34],-0.797
same,glycan array binding signal (z-score),[35],0.936
same,glycan array binding signal (z-score),[36],0.554
same,glycan array binding signal (z-score),[37],-0.474
same,glycan array binding signal (z-score),[38],-0.912
same,glycan array binding signal (z-score),[39],-1.23
same,glycan array binding signal (z-score),[40],-1.15
same,glycan array binding signal (z-score),[41],-0.861
same,glycan array binding signal (z-score),[42],1.07

# Fetched one by one from the list above, two records:
binder,measurement,setting,value
B1,glycan array binding signal (z-score),[34],-0.797
same,glycan array binding signal (z-score),[7],-0.186
